The text below walks through data of paper PMC7203109.

The chains behind the UniProt entries cited, without tags or fusion partners.
UniProt Q61687: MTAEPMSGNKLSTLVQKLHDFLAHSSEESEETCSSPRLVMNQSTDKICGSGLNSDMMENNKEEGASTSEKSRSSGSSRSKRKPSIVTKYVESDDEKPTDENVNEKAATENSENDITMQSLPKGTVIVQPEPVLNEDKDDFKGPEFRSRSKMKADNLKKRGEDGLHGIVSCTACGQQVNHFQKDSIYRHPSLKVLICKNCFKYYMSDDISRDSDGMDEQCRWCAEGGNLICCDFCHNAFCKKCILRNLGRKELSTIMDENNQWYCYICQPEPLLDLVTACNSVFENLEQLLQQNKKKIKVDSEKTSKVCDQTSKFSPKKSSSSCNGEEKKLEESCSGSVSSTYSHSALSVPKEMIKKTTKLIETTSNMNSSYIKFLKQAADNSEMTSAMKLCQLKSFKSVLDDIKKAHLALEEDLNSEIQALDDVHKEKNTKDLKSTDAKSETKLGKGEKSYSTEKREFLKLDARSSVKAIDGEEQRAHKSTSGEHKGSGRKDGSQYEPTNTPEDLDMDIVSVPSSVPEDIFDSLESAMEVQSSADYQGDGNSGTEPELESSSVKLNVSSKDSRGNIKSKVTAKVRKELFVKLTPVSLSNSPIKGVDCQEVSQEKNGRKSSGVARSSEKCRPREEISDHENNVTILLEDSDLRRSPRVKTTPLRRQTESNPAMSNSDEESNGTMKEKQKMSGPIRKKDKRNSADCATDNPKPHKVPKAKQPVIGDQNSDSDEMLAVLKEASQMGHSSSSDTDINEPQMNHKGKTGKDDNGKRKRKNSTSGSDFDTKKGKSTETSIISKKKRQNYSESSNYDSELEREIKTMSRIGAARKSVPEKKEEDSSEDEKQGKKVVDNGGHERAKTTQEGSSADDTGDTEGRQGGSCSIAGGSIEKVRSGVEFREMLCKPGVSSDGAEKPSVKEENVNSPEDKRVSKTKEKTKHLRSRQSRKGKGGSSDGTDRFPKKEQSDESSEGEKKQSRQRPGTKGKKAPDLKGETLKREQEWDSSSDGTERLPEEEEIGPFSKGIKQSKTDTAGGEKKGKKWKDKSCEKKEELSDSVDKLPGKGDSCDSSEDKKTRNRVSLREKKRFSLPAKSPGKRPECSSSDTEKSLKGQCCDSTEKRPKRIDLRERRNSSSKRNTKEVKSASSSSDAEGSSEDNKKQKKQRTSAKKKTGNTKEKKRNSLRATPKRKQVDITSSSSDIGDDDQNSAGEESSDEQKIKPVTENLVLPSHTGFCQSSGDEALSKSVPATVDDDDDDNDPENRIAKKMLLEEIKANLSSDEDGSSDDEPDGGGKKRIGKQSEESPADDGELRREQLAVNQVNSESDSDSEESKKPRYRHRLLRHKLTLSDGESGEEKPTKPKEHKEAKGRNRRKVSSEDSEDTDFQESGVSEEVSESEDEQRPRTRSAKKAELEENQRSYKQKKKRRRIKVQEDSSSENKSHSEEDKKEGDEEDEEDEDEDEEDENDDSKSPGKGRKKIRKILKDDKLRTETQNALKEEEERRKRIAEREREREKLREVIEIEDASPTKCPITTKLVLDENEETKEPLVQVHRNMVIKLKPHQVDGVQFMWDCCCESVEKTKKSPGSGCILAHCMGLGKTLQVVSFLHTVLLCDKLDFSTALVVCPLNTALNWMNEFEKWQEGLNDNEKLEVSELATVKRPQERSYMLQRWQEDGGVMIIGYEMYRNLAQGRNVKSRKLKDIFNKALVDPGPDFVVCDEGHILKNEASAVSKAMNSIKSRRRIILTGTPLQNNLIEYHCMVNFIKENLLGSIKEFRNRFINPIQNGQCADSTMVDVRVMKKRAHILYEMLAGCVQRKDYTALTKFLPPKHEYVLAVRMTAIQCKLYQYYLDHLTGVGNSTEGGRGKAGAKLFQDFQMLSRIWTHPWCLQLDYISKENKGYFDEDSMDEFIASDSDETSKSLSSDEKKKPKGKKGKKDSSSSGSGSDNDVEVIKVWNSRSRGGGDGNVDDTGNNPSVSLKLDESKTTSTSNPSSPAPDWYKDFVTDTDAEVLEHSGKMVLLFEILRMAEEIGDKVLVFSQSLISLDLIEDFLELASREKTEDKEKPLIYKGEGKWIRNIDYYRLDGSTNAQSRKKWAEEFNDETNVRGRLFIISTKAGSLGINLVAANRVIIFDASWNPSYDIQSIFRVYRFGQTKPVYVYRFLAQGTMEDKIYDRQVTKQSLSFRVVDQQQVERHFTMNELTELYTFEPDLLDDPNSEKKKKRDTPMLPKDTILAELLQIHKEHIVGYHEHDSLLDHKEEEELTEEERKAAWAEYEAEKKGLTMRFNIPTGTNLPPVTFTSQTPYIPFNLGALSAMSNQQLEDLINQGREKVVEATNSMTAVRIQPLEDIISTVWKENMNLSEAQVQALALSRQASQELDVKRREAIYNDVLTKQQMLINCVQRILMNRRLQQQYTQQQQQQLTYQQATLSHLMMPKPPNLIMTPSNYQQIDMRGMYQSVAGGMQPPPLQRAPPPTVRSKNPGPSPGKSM
UniProt O35613: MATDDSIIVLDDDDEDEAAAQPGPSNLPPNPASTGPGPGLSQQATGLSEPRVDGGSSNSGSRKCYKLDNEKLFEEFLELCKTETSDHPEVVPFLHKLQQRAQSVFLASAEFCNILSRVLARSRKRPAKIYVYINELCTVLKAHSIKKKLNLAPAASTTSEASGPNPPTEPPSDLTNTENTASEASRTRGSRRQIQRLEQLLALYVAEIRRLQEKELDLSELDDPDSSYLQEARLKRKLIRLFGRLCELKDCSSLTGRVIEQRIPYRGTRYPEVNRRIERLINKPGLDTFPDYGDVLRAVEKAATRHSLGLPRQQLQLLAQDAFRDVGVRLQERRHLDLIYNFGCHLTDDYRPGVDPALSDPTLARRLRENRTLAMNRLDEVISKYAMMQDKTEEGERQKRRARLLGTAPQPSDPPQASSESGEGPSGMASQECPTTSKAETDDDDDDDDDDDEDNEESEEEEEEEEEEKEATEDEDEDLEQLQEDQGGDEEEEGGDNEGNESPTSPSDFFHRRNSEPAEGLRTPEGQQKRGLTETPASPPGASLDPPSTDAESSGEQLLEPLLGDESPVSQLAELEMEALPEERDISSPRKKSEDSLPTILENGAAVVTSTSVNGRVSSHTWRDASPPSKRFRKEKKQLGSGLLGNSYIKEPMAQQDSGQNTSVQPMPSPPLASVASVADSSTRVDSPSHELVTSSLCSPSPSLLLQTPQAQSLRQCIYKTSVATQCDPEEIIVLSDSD

Results are given in words; binding and its absence hold for the method and conditions named. In cells and extracts the contact can be indirect. Some entries that bind do so weakly or less than the wild type.

The target in the test is ATRX (alpha-thalassemia X-linked mental retardation), endogenous wild type in female MEFs (mouse (endogenous in MEFs)) (UniProt Q61687). Put plainly: co-IP; endogenous IP: 1 mg MEF nuclear extract with ATRX antibody coupled to protein A agarose; washed with BC300, eluted with 0.1 M glycine pH 2.5; blots with ATRX and DAXX antibodies; IgG as control.

As for “DAXX, endogenous in MEFs (from UniProt O35613 1-739)”, the binding entry is reported as “binds”.
